# The other results are listed elsewhere or left out. Values are raw readings; no control value is given beside them.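 In the initial screen, polymyxin B was used at a concentration that permeabilizes Salmonella's outer membrane but not its inner membrane. Maximum growth was set by DMSO wells with or without polymyxin B. Since plates varied, data were ranked per plate, and compounds giving the lowest OD600 advanced as hits.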
# Tested on: Salmonella enterica serovar Typhimurium SL1344
# Experiment: bacterial growth OD600 after 18 h with compound and polymyxin B; higher = more bacterial growth (less inhibition)
# Conditions: 50 µM, Mueller-Hinton broth
compound,measurement,setting,value
Cc1ncc2c(c1CNC(=O)CN1CCCCC1)CCN(C(=O)c1ccc(-c3ccco3)cc1)C2,bacterial growth OD600,polymyxin B 0.75 µg/mL,0.81
CC(=O)c1cc(CN2CCCC(N3CCN(c4cccc(C(F)(F)F)c4)CC3)C2)cs1 (stereo not given),bacterial growth OD600,polymyxin B 1 µg/mL,0.801
CC1CCN(c2ccc(C(=O)N3CCC(Cn4cccn4)CC3)cn2)CC1,bacterial growth OD600,polymyxin B 1 µg/mL,0.864
Cc1ccccc1CCC1CCCN(C(=O)C2CCN(C(C)C)CC2)C1 (stereo not given),bacterial growth OD600,polymyxin B 0.75 µg/mL,0.007
Cc1cccc2nc(CNC(=O)c3cc(COc4ccc(F)cc4F)on3)cn12,bacterial growth OD600,polymyxin B 0.75 µg/mL,0.722
CCn1nc(C)c(CNC(=O)CN2Cc3ccccc3OC(c3ccsc3)C2)c1C (stereo not given),bacterial growth OD600,polymyxin B 0.75 µg/mL,0.876
CN(CCc1cnn(C)c1)C(=O)c1cc(COc2ccc3c(c2)OCO3)[nH]n1,bacterial growth OD600,polymyxin B 1 µg/mL,0.89
Cc1occc1C(=O)N(C)C(Cc1ccccc1)C1CCN(C(=O)c2[nH]nc3c2CCCC3)CC1 (stereo not given),bacterial growth OD600,polymyxin B 0.75 µg/mL,0.858
COc1ccc(OCc2cc(C(=O)NC(C)Cc3ccccn3)no2)c(Cl)c1 (stereo not given),bacterial growth OD600,polymyxin B 1 µg/mL,0.73
COc1ccc(CCC(=O)N2CCC(C3(CC(C)C)NC(=O)N(Cc4cccs4)C3=O)CC2)cc1 (stereo not given),bacterial growth OD600,polymyxin B 0.75 µg/mL,0.765
O=C(NCCN1CCOCC1)c1cc(COc2cccc(C(F)(F)F)c2)[nH]n1,bacterial growth OD600,polymyxin B 1 µg/mL,1.18
O=C1CCC(CCC(=O)N2CCC(c3ccc(F)cc3)C2)(Cc2ccc3ccccc3c2)N1 (stereo not given),bacterial growth OD600,polymyxin B 0.75 µg/mL,0.005
COc1ccccc1C1CN(CCNC(=O)CCc2ccc3c(c2)OCO3)Cc2ccccc2O1 (stereo not given),bacterial growth OD600,polymyxin B 0.75 µg/mL,0.019
Cc1ccc(OCc2cc(C(=O)N(C)C3CCCCC3)no2)cc1C,bacterial growth OD600,polymyxin B 1 µg/mL,0.002
COc1cccc(CN2C(=O)NC(C)(C3CCN(C(=O)c4cccc(N(C)C)c4)CC3)C2=O)c1OC (stereo not given),bacterial growth OD600,polymyxin B 0.75 µg/mL,0.84
CCc1noc(C)c1C(=O)N1CCC(C2CCN(Cc3cccnc3)CC2)C1 (stereo not given),bacterial growth OD600,polymyxin B 0.75 µg/mL,0.854
COc1ccccc1C1(CC(=O)N2CCN(Cc3ccc4c(c3)OCO4)CC2)CC(=O)N(C)C1=O (stereo not given),bacterial growth OD600,polymyxin B 0.75 µg/mL,0.826
CC(Cc1ccccn1)NC1CCN(c2ccc(CC(=O)NCCc3cccc(F)c3)cc2)CC1 (stereo not given),bacterial growth OD600,polymyxin B 0.75 µg/mL,0.852
COCCN1CCN(C(=O)CC2(c3ccccc3)CC(=O)N(CCCOc3cccnc3)C2=O)CC1 (stereo not given),bacterial growth OD600,polymyxin B 0.75 µg/mL,0.919
CCc1n[nH]c(C(=O)N2CCCC(N3CCN(c4ccccc4C)CC3)C2)c1C (stereo not given),bacterial growth OD600,polymyxin B 1 µg/mL,0.743
CO[C@H]1[C@H](NC(=O)c2cccs2)c2ccccc2C12CCN(Cc1c(F)ccc(F)c1F)CC2,bacterial growth OD600,polymyxin B 0.75 µg/mL,0.683
CCCNC(=O)NCc1cccnc1N(CC)CC,bacterial growth OD600,polymyxin B 1 µg/mL,1
COc1ccc(-c2cnnc(NCCc3ccccc3F)n2)c(OC)c1,bacterial growth OD600,polymyxin B 0.75 µg/mL,0.009
COCCCN1C(=O)CC(CC(=O)NCc2cccc(OC)c2OC)(c2ccccc2C)C1=O (stereo not given),bacterial growth OD600,polymyxin B 0.75 µg/mL,0.832
Cc1ccc(NC2CCCN(C(=O)C3CCC3)C2)cc1C (stereo not given),bacterial growth OD600,polymyxin B 1 µg/mL,0.862
CN(C)c1ncccc1CNCc1cccc2cccnc12,bacterial growth OD600,polymyxin B 0.75 µg/mL,0.946
COc1ccc(CN2CCN(CCCn3cccn3)CC2CCO)c(F)c1 (stereo not given),bacterial growth OD600,polymyxin B 1 µg/mL,0.811
O=C(NC1CCOCC1)c1csc2nc(-c3ccc(C(F)(F)F)cc3)cn12,bacterial growth OD600,polymyxin B 1 µg/mL,1.04
Cc1ccccc1-n1ncc(C(C)NC(=O)c2ccsc2)c1C (stereo not given),bacterial growth OD600,polymyxin B 1 µg/mL,0.926
COCCN(C)C(=O)C1CCN(c2nc(-c3ccccc3)nc3c2CCC3)CC1,bacterial growth OD600,polymyxin B 1 µg/mL,0.816

# A run of entries taken from the entries so far, as a working copy:
compound,measurement,setting,value
CC(Cc1ccccn1)NC1CCN(c2ccc(CC(=O)NCCc3cccc(F)c3)cc2)CC1 (stereo not given),bacterial growth OD600,polymyxin B 0.75 µg/mL,0.852
COCCN1CCN(C(=O)CC2(c3ccccc3)CC(=O)N(CCCOc3cccnc3)C2=O)CC1 (stereo not given),bacterial growth OD600,polymyxin B 0.75 µg/mL,0.919

# Reference: the supplement of paper PMC12889115
